Laboratory results from PMC12255723.
These are yes or no findings as the source states them, for the method shown. Binding seen in cells or lysates may run through a third protein. Some entries that bind do so weakly or less than the wild type. Where a sequence is shown, tags or fusion partners need not be part of it.

Chains of the proteins cited; added tags and fusions are not shown.
UniProt P17844: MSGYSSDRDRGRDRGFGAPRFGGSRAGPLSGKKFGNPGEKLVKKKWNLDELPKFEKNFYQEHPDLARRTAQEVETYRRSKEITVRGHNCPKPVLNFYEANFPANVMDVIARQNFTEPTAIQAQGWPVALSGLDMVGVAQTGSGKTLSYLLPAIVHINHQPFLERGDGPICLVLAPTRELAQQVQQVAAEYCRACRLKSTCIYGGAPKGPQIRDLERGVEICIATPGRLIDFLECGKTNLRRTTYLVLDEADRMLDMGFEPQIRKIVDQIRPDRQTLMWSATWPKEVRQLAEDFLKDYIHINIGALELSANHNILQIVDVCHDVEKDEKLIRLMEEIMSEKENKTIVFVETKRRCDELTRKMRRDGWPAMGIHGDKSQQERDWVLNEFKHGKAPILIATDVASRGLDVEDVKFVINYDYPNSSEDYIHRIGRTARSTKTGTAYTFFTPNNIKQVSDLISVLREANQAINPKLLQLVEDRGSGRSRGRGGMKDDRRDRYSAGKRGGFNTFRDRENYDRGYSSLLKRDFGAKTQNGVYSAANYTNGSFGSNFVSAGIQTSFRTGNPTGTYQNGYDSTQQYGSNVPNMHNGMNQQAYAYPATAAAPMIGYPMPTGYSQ

Biological target: T1, OTUD6B-Flag (UniProt Q8N6M0)
T1 sequence: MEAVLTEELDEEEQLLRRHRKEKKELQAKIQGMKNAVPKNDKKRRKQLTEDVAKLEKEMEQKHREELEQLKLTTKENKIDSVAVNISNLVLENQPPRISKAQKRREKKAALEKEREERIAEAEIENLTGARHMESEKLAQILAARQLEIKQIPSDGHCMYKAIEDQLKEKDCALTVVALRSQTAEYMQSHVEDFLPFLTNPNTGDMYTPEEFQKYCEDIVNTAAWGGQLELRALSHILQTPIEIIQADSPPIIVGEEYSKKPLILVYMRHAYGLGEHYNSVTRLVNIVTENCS
Assay: co-IP; HCT116 cells transfected with the plasmids for 48 h; lysed in IP buffer (20 mM Tris, 150 mM NaCl, 1 mM EDTA, 1% Triton X-100); Flag or Myc antibody and agarose beads overnight at 4 °C; Western blot

binding: binds
Substance: DDX5-Myc (from UniProt P17844 1-614) (enzyme)
